According to patent publication US20240060047A1, “CELLS WITH SUSTAINED TRANSGENE EXPRESSION” (BlueRock Therapeutics LP, priority 2019, published 2024):
For at least one compound, name, drawing or mass did not settle the structure.

Test system: GAPDH-targeted RapaCasp9 PSC line
Assay: Flow cytometric analysis of cleaved Caspase 3 after rapamycin treatment
Type: cell-based, human
Conditions: 5nM or 10 nM rapamycin, 4 hours of treatment
Procedure: A GAPDH-targeted RapaCasp9 PSC line was treated with either 5nM or 10 nM of rapamycin for 1, 2, 4 or 24 hours, and cells were harvested for flow cytometric analysis after each timepoint (FIG. 17). The primary antibody used was an anti-human/mouse cleaved caspase-3 conjugated to an Alexa Fluor® 488 […]. The primary antibody detects human and mouse Caspase 3 cleaved at Asp175. Caspase 3 is an executioner caspase that functions downstream of the initiator caspase, Caspase 9, in the apoptotic cascade. […] Upon induction of apoptosis through either cell stress or activation, it undergoes proteolysis into cleaved Caspase 3 subunits. […] There was negligible detection of cleaved Caspase 3 for edited PSCs not treated with rapamycin.

SMILES: CO[C@H]1C[C@@H]2CC[C@@H](C)[C@@](O)(O2)C(=O)C(=O)N2CCCC[C@H]2C(=O)O[C@H]([C@H](C)C[C@@H]2CC[C@@H](O)[C@H](OC)C2)CC(=O)[C@H](C)/C=C(\C)[C@@H](O)[C@@H](OC)C(=O)[C@H](C)C[C@H](C)/C=C/C=C/C=C/1C [rapamycin]
- cleaved Caspase 3 staining: readily detectable
